In PubChem BioAssay AID493014 (National Center for Advancing Translational Sciences (NCATS), 2011):
This is one part of the list. Further columns of the screen follow, without active or inactive calls. Compounds called inactive in the main read-out are mostly missing here. Words in brackets tell the shape of the fitted curve; partial curves, single points and poor fits give uncertain potencies.

Assay: qHTS Assay to Find Inhibitors of Chronic Active B-Cell Receptor Signaling
Details: ABC-DLBCL IkBa-CBG/CBR reporter, luminescence ratio (green luciferase fused to IkBa over red control in TMD8 lymphoma cells), 4 h
Summary of the method: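 TMD8 ABC-DLBCL cells carrying doxycycline-inducible green luciferase fused to IkappaBalpha plus unfused red luciferase were exposed to compounds (up to 46 uM) for 4 hrs at 37C. Activity came from the overlap-corrected green/red luminescence ratio.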

[1] = measured here: IkBa-CBG green luminescence
[2] = measured here: CBR red luminescence, cell number

| Structure (SMILES) | AC50 [1] | AC50 [2] |
| --- | --- | --- |
| Cc1ccc2cc(NC(=O)Cc3ccccc3)ccc2n1 | 1.26 µM [rising, full curve, poor fit] | – |
| Cc1cccc(C(=O)NNC(=O)c2ccccc2)c1 | – | 11.6 µM [falling, partial curve] |
| O=C(Nc1ncn[nH]1)c1ccccc1O | – | 35.5 µM [falling, single point] |
| COc1cccc(-c2cc3nc(-c4ccccc4)cc(=O)n3[nH]2)c1 | 12.6 µM [falling, single point] | 7.08 µM [falling, partial curve] |
| COc1cccc(-c2cc(C(=O)NC3CCCC3)no2)c1 | – | 7.31 µM [falling, partial curve] |
| O=S(=O)(c1ccc(NC(=S)Nc2ccc(OC(F)F)cc2)cc1)N1CCOCC1 | – | 29.1 µM [rising, single point] |
| COc1ccc2nc(NC(=O)c3ccc(NC(=O)C4CCCO4)cc3)sc2c1 (centres undefined) | – | 3.98 µM [falling, partial curve, poor fit] |
| COCCn1cnc2c(c1=O)c1nc3ccccc3nc1n2/N=C/c1ccco1 | – | 22.4 µM [falling, partial curve, poor fit] |
| Cc1ccccc1NC(=O)Cn1nc(C)c2ccccc2c1=O | – | 31.6 µM [rising, single point] |
| CCc1ccc(O)c(N=Cc2ccccc2O)c1 | – | 29.1 µM [rising, single point] |
| CCOC(=O)c1sc(-c2ccccc2)nc1C | – | 0.501 µM [rising, full curve, poor fit] |
| O=C(/C=C/c1c(F)cccc1Cl)Nc1ccncc1 | – | 6.51 µM [rising, single point] |
| Cc1ccc(/C=C/C(=O)N2CCN(c3ncccn3)CC2)o1 | – | 29.1 µM [falling, single point] |
| Cc1ccsc1C(=O)OCc1csc(-c2ccccc2)n1 | – | 20.6 µM [falling, partial curve] |
| CSCCC(NS(=O)(=O)c1ccc2c(c1)oc(=O)n2C)C(=O)NCc1ccc(Cl)cc1 (centres undefined) | – | 11.2 µM [rising, partial curve] |
| CC(=O)Nc1ccc(S(=O)(=O)NCCC(=O)OCC(=O)NCc2ccccc2)cc1 | – | 20.6 µM [rising, single point] |
| Nc1scn[n+]1Cc1cccc2cccnc12 | – | 12.6 µM [falling, partial curve, poor fit] |
| COc1ccc(-c2nc(N)ncc2-c2csc(C)n2)c(O)c1 | – | 11.2 µM [rising, partial curve, poor fit] |
| CC(=O)c1ccc(NC(=O)CN2C(=O)/C(=C/C(C)=C/c3ccccc3)SC2=S)cc1 | – | 3.66 µM [rising, partial curve] |
| Cc1cccc(NC(=O)C2Cc3ccccc3O/C2=N\O)c1 (centres undefined) | – | 0.1 µM [rising, full curve, poor fit] |
| C=CCOc1c(Br)cc(CNc2ccc(NC(=O)CCC)cc2)cc1OCC | – | 0.447 µM [rising, partial curve, poor fit] |

Shown with bars between the fields: entries from further up
Structure (SMILES) | AC50 [1] | AC50 [2]
Cc1ccccc1NC(=O)Cn1nc(C)c2ccccc2c1=O | – | 31.6 µM [rising, single point]
CCOC(=O)c1sc(-c2ccccc2)nc1C | – | 0.501 µM [rising, full curve, poor fit]

Next part:

| Structure (SMILES) | AC50 [1] | AC50 [2] |
| --- | --- | --- |
| CCOC(=O)c1c(-c2ccccc2)oc2ccc(OCC(O)CNCCN(C)C)cc12 (centres undefined) | – | 5.01 µM [falling, partial curve] |
| CSc1nc2ccc(NC(=O)c3ccccn3)cc2s1 | – | 15.8 µM [falling, partial curve, poor fit] |
| Cc1ccc(-c2nn(-c3ccccc3)cc2/C=N/n2c(-c3ccncc3)n[nH]c2=S)cc1 | – | 1 µM [rising, full curve, poor fit] |
| NC(=S)N=Nc1c(O)n(CCCl)c2ccc(Cl)cc12 | 3.98 µM [falling, single point] | 17.8 µM [falling, single point] |
| CCOC(=O)N1CCN(C(=O)C(C)N(c2ccc(Oc3ccccc3)cc2)S(C)(=O)=O)CC1 (centres undefined) | – | 3.66 µM [rising, partial curve, poor fit] |
| O=C(CSc1ccccc1)NNC(=O)c1ccccc1O | – | 22.4 µM [rising, partial curve, poor fit] |
| Cc1nc(S(=O)(=O)c2ccc(Cl)cc2)c(NCc2ccccc2)o1 | – | 25.9 µM [rising, single point] |
| Cc1ccc(N(CC(=O)N2CCc3ccccc32)C2=NC(=O)CS2)cc1 | – | 12.6 µM [rising, partial curve, poor fit] |
| O=C(CC1C(=O)NCCN1CC1CCCCC1)NCc1ccc(F)cc1 (centres undefined) | – | 6.31 µM [rising, single point] |
| CC1CCCN(C(=O)COc2ccc(Nc3ccccc3)cc2)C1 (centres undefined) | – | 0.501 µM [rising, full curve, poor fit] |
| Cc1ccc(S(=O)(=O)N/N=C\c2cc([N+](=O)[O-])ccc2Cl)cc1 | – | 29.1 µM [falling, single point] |
| COc1ccc(/C=C2\SC(=O)N(CCC(=O)Nc3ccc(S(=O)(=O)Nc4nccs4)cc3)C2=O)cc1 | – | 10.3 µM [falling, partial curve] |
| CSc1nc2ccc(NS(=O)(=O)c3cccc(Cl)c3Cl)cc2s1 | – | 25.9 µM [falling, single point] |
| COc1ccccc1-c1cc(C2CC2)nc(N)c1C#N | – | 35.5 µM [rising, single point] |
| CCCC(O)(c1ccc(CC)cc1)C(CN1CCOCC1)c1ccccc1 (centres undefined) | – | 17.8 µM [falling, partial curve] |
| CCOC(=O)C1=C(C)N(CC)C(=S)NC1c1ccccc1OC(F)F (centres undefined) | – | 35.5 µM [falling, single point] |
| N#C/C(=C\c1cccc(NC(=O)c2ccccc2Cl)c1)C(=O)NCCc1ccccc1 | 25.9 µM [falling, single point] | – |
| CCC(C)C(=O)Nc1nc2ccc(OC)cc2s1 (centres undefined) | – | 22.4 µM [falling, single point] |
| Cc1ccc(-c2cc(C(=O)Nc3cc(C)ccc3O)no2)cc1 | – | 0.891 µM [falling, full curve, poor fit] |
| CCc1nc(NCCN2CCOCC2)c2oc3ccccc3c2n1 | – | 12.6 µM [falling, single point] |
| CCOC(=O)c1cc(C(=O)c2cc(F)ccc2O)coc1=N | – | 31.6 µM [falling, single point] |
